Test results as given in article PMC2764382.
These are yes or no findings as the source states them, for the method shown. Binding seen in cells or lysates may run through a third protein. Some results given as binding are weak or reduced against the parent protein; the word gives no strength. For part of these data: Where a sequence is shown, tags or fusion partners need not be part of it.

Sequences of proteins named here, by UniProt entry; tags and fusion partners are left off. A change or cut given only in a name is not applied to a line headed by its entry. A line that says so, or that is headed by a name, gives the form on record, which may keep a tag or linker. Residues count along the entry.
UniProt O08562, residues 968-1157: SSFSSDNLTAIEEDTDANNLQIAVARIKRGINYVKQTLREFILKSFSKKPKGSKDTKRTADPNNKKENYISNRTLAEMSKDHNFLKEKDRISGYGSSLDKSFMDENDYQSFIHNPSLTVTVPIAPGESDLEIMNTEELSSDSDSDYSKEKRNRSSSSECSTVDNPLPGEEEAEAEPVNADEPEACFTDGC
UniProt Q62968: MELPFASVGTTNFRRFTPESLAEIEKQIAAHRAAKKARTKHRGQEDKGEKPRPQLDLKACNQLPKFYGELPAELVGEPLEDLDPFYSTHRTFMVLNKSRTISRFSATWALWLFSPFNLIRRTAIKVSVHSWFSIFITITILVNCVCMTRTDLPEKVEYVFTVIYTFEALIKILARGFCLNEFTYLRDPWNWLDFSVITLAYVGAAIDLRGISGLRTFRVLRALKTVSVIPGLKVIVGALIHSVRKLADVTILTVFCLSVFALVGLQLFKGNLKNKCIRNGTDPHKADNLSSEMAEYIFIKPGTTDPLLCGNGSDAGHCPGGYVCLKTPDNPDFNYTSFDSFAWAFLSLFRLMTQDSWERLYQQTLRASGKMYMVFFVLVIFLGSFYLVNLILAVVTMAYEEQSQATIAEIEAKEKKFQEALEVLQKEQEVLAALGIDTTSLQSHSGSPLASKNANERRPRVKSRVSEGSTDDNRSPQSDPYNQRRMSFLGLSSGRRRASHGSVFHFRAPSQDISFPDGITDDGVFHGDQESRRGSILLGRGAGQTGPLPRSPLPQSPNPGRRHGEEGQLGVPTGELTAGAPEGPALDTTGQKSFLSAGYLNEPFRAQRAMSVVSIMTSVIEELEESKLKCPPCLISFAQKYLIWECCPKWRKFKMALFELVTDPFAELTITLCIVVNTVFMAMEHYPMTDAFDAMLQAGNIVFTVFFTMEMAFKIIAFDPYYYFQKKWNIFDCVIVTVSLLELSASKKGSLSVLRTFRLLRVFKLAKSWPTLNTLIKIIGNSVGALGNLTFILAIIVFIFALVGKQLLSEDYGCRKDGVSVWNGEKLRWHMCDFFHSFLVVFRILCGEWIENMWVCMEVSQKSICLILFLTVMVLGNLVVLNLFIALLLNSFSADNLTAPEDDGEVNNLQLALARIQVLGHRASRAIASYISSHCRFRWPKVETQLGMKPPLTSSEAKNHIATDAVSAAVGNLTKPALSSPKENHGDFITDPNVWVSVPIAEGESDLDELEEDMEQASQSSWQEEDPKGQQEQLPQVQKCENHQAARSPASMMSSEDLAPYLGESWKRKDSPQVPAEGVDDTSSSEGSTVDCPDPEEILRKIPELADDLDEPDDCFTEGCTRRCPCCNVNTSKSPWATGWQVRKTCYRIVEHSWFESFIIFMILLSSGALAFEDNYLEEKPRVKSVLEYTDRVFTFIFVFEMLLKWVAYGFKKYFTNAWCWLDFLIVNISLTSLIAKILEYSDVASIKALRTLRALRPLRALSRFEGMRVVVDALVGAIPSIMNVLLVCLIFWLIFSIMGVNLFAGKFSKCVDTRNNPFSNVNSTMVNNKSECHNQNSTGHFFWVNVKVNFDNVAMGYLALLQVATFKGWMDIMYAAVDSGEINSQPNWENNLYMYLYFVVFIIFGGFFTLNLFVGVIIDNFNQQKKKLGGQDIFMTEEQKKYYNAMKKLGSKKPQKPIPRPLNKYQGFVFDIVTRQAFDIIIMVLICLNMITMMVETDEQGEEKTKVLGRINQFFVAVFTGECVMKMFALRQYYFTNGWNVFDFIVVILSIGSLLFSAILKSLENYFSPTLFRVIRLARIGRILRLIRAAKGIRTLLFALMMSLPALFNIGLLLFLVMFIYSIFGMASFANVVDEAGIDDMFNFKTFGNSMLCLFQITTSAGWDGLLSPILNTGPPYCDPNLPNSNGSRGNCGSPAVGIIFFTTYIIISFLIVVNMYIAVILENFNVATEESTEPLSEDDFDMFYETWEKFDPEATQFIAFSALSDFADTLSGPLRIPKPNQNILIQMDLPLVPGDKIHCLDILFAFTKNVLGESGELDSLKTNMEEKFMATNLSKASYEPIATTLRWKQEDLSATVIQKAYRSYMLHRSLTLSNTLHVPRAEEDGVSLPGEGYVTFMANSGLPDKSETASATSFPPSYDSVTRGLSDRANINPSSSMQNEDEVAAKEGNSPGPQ
intracellular loop between domains 2 and 3 of rat NaV1.8 (amino acid positions 893 to 1148) fused to GST: residues 893-1148 of Q62968

Assays:
[1] = biological target: myc-tagged full length rat Pdzd2 (rat) (UniProt Q9QZR8); assay: co-IP; immunoprecipitation by anti-myc antibody from myc-Pdzd2 transfected CHO-SNS22 cells
[2] = biological target: intracellular loop between domains 2 and 3 of rat NaV1.7 (aa 968 to 1157) fused to GST (rat) (UniProt O08562); assay: pull-down; GST pull-down as described (Poon et al., 2004); GST fusion proteins purified on glutathione sepharose beads as bait, HA-Pdzd2(C) as prey
[3] = biological target: intracellular loop between domains 2 and 3 of rat NaV1.8 (amino acid positions 893 to 1148) fused to GST (rat) (UniProt Q62968); assay: as above

Molecule | binding [1] | binding [2] | binding [3]
rat NaV1.8 expressed in CHO-SNS22 cells (from UniProt Q62968 1-1956) | binds | – | –
haemagglutinin (HA)-tagged rat Pdzd2 C-terminal fragment (201aa), GFP-fused (domain or fragment, UniProt Q9QZR8 2567-2766) GGADVEPKSVMVHRVFSQGVASQEGTVSRGDFLLSVNGTSLAGLAHSEVTKVLHQAELHKHALMIIKKGNDQPGPSFKQEPPSANGKGPFPRRTLPLEPGAGRNGAAHDALCVEVLKTSAGLGLSLDGGKSSVSGEGPLVIKRVYKGGAAERAGTIEAGDEILAINGKPLVGLVHFDAWNIMKSVPEGPVQLVIRKHRDS | – | binds | binds
